From paper PMC7159923

Sequences of proteins named here, by UniProt entry; tags and fusion partners are left off. A change or cut given only in a name is not applied to a line headed by its entry. A line that says so, or that is headed by a name, gives the form on record, which may keep a tag or linker.
GFP-IQSec1 (Q6DN90, form named): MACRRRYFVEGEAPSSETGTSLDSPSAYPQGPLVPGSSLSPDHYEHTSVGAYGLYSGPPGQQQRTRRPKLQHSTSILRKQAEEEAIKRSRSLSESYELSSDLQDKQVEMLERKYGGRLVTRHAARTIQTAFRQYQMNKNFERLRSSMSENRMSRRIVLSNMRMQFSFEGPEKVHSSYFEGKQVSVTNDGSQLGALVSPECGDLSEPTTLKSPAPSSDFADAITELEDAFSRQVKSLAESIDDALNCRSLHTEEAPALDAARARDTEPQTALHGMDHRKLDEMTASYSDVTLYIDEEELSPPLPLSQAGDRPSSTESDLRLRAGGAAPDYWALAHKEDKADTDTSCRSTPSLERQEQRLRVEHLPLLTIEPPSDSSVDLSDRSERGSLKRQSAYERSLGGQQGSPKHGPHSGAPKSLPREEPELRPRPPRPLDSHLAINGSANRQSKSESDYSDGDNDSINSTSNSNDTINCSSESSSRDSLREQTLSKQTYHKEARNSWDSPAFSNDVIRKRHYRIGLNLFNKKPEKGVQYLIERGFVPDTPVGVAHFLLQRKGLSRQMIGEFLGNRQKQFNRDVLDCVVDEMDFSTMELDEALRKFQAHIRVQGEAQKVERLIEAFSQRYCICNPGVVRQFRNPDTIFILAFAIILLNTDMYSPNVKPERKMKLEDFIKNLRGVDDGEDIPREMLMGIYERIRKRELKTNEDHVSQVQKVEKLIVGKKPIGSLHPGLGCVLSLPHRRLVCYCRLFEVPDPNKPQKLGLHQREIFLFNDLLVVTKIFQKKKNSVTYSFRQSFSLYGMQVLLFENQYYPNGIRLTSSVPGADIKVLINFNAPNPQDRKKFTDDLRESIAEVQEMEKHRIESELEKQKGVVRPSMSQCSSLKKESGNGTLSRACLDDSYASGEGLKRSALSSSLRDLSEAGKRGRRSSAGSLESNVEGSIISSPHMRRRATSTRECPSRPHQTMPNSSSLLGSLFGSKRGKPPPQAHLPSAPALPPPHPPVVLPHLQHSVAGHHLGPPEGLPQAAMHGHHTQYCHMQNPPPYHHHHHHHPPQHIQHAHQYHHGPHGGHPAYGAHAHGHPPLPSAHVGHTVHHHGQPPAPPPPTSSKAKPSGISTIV
UniProt O00151: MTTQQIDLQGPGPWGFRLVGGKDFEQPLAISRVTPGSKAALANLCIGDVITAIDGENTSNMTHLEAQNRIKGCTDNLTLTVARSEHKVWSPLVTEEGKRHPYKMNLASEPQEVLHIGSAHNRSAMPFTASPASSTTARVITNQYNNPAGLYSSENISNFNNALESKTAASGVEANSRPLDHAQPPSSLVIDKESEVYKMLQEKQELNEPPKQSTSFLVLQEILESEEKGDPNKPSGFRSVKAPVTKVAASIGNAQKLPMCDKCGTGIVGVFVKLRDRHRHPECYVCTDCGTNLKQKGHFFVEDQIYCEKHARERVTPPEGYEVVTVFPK
UniProt Q12923: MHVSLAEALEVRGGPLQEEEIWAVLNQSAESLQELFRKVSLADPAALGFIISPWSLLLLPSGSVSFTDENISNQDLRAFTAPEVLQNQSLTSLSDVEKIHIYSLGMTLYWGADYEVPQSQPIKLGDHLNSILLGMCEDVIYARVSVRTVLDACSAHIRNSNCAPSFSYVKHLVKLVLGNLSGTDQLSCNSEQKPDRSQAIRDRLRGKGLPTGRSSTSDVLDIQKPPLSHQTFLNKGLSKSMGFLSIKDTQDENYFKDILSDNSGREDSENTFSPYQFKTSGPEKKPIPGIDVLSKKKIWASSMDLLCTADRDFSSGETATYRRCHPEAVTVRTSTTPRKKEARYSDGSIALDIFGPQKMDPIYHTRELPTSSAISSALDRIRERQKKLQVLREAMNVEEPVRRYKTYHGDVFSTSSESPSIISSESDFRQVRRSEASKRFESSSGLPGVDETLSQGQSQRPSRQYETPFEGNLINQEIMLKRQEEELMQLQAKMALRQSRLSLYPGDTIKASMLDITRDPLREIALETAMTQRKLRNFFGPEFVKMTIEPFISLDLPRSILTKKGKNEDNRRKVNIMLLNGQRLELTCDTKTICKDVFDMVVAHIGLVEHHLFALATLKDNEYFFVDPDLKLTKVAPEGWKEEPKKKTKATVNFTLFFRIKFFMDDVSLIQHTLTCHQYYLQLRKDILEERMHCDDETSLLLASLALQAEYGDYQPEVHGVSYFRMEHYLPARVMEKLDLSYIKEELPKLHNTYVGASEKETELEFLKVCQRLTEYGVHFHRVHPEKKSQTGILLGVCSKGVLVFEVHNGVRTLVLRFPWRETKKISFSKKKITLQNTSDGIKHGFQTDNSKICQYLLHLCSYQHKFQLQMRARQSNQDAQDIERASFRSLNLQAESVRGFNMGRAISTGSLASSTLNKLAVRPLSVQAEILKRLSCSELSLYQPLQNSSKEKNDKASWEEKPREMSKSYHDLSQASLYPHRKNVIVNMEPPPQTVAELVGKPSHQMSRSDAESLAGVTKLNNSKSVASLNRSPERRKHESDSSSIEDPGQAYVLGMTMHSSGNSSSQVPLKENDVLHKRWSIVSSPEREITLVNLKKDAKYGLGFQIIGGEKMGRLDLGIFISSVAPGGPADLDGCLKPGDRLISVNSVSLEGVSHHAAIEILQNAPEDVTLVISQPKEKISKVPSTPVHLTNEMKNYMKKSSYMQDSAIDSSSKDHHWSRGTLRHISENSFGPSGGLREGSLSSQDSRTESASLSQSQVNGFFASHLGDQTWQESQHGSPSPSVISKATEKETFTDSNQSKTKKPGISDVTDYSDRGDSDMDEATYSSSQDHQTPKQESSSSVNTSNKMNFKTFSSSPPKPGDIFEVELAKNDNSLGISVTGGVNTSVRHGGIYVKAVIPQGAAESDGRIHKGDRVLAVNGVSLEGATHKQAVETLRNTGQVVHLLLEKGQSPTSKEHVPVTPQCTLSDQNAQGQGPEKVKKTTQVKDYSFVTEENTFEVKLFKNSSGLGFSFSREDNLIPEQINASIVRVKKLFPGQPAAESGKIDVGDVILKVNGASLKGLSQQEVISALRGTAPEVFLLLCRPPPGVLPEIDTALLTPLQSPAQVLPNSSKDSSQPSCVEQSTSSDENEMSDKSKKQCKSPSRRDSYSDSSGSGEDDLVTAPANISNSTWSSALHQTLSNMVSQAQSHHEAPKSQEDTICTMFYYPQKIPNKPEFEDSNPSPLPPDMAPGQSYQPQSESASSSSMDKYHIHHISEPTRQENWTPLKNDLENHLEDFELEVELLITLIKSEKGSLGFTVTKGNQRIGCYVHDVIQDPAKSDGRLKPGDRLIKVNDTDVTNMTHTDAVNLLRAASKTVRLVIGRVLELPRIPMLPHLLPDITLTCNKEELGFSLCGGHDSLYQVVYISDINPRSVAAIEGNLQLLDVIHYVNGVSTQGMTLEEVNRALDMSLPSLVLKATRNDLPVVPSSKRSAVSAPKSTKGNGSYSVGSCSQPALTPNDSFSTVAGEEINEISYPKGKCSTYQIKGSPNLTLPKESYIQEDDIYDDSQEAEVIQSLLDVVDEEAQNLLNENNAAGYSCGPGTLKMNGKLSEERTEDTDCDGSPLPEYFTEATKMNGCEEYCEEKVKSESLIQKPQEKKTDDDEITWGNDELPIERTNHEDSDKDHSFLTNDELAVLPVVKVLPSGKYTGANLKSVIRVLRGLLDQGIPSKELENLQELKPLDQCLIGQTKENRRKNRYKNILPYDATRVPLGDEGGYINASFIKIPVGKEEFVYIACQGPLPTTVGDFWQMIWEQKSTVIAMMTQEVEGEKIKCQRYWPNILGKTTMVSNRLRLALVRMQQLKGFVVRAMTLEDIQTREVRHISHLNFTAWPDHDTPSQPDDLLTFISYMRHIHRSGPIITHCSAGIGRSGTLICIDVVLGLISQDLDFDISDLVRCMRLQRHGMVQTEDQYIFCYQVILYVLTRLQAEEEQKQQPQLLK
UniProt Q9NR12: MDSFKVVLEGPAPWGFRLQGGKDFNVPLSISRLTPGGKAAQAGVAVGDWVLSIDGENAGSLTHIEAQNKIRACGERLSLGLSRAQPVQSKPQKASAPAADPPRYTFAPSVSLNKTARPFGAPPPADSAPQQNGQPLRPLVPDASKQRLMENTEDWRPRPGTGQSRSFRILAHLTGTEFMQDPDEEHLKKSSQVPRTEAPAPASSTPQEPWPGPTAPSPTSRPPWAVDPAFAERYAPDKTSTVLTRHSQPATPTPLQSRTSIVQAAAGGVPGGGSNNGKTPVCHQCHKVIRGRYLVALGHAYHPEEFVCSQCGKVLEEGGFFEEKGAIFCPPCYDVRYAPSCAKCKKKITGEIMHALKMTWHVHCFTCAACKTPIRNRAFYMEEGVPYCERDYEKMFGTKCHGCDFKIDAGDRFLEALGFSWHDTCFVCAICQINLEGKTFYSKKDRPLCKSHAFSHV
UniProt Q14160: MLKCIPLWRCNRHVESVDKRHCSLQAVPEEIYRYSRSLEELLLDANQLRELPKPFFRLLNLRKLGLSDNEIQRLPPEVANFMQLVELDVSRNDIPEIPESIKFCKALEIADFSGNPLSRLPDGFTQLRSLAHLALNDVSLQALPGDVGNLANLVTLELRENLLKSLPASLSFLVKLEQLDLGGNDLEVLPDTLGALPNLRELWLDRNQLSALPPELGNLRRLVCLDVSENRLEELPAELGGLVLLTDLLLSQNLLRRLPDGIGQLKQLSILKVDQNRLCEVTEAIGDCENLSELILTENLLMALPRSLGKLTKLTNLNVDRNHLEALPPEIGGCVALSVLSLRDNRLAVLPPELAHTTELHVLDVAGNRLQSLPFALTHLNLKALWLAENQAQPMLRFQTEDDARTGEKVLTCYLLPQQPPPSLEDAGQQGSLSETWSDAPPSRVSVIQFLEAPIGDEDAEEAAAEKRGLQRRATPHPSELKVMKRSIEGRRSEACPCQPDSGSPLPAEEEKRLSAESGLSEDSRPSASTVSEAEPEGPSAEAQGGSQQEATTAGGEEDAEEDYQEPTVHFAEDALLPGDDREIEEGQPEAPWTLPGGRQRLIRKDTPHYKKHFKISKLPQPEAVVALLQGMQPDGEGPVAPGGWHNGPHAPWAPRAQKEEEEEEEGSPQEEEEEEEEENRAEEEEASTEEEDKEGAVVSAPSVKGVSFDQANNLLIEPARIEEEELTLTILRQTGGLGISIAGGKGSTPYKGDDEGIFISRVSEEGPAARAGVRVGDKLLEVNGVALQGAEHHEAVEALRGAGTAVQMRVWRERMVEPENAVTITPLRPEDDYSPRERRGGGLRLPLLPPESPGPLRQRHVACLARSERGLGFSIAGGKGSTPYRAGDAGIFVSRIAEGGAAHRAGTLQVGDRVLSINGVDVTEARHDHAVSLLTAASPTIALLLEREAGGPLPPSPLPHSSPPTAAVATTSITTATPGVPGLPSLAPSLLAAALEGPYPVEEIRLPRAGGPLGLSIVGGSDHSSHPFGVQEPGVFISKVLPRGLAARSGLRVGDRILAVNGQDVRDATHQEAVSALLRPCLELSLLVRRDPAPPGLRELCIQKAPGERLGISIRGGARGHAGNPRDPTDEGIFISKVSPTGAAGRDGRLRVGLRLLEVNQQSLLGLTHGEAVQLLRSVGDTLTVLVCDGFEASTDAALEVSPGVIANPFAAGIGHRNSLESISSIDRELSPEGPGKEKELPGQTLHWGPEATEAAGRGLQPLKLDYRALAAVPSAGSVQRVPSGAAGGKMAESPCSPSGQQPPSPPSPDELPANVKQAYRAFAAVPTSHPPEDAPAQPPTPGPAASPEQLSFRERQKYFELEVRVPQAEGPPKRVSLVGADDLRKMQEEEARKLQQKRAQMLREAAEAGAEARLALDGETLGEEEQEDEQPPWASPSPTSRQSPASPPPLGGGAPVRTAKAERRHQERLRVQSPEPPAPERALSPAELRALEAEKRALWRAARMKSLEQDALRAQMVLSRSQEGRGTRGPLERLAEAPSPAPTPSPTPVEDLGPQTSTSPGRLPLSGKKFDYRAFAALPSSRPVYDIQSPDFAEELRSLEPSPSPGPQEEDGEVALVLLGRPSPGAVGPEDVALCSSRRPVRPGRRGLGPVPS
UniProt Q96CW1: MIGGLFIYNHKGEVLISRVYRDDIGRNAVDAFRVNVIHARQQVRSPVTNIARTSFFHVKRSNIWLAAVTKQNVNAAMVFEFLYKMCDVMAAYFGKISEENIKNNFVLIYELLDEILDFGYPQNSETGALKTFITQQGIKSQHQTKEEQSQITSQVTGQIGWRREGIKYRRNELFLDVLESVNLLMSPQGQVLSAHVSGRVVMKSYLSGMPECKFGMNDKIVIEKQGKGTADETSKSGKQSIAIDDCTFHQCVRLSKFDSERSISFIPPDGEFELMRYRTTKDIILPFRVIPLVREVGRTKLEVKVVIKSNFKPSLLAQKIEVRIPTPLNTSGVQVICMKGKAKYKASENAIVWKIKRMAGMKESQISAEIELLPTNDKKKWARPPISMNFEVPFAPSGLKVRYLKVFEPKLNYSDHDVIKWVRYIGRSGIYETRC

B1: GIPC1 (protein, UniProt O14908 1-333)
chain: MPLGLGRRKKAPPLVENEEAEPGRGGLGVGEPGPLGGGGSGGPQMGLPPPPPALRPRLVFHTQLAHGSPTGRIEGFTNVKELYGKIAEAFRLPTAEVMFCTLNTHKVDMDKLLGGQIGLEDFIFAHVKGQRKEVEVFKSEDALGLTITDNGAGYAFIKRIKEGSVIDHIHLISVGDMIEAINGQSLLGCRHYEVARLLKELPRGRTFTLKLTEPRKAFDMISQRSAGGRPGSGPQLGTGRGTLRLRSRGPATVEDLPSAFEEKAIEKVDDLLESYMGIRDTELAATMVELGKDKRNPDELAEALDERLGDFAFPDEFVFDVWGAIGDAKVGRY
B2: MAGI3 (protein, UniProt Q5TCQ9 1-1481)
chain: MSKTLKKKKHWLSKVQECAVSWAGPPGDFGAEIRGGAERGEFPYLGRLREEPGGGTCCVVSGKAPSPGDVLLEVNGTPVSGLTNRDTLAVIRHFREPIRLKTVKPGKVINKDLRHYLSLQFQKGSIDHKLQQVIRDNLYLRTIPCTTRAPRDGEVPGVDYNFISVEQFKALEESGALLESGTYDGNFYGTPKPPAEPSPFQPDPVDQVLFDNEFDAESQRKRTTSVSKMERMDSSLPEEEEDEDKEAINGSGNAENRERHSESSDWMKTVPSYNQTNSSMDFRNYMMRDETLEPLPKNWEMAYTDTGMIYFIDHNTKTTTWLDPRLCKKAKAPEDCEDGELPYGWEKIEDPQYGTYYVDHLNQKTQFENPVEEAKRKKQLGQVEIGSSKPDMEKSHFTRDPSQLKGVLVRASLKKSTMGFGFTIIGGDRPDEFLQVKNVLKDGPAAQDGKIAPGDVIVDINGNCVLGHTHADVVQMFQLVPVNQYVNLTLCRGYPLPDDSEDPVVDIVAATPVINGQSLTKGETCMNPQDFKPGAMVLEQNGKSGHTLTGDGLNGPSDASEQRVSMASSGSSQPELVTIPLIKGPKGFGFAIADSPTGQKVKMILDSQWCQGLQKGDIIKEIYHQNVQNLTHLQVVEVLKQFPVGADVPLLILRGGPPSPTKTAKMKTDKKENAGSLEAINEPIPQPMPFPPSIIRSGSPKLDPSEVYLKSKTLYEDKPPNTKDLDVFLRKQESGFGFRVLGGDGPDQSIYIGAIIPLGAAEKDGRLRAADELMCIDGIPVKGKSHKQVLDLMTTAARNGHVLLTVRRKIFYGEKQPEDDSSQAFISTQNGSPRLNRAEVPARPAPQEPYDVVLQRKENEGFGFVILTSKNKPPPGVIPHKIGRVIEGSPADRCGKLKVGDHISAVNGQSIVELSHDNIVQLIKDAGVTVTLTVIAEEEHHGPPSGTNSARQSPALQHRPMGQSQANHIPGDRSALEGEIGKDVSTSYRHSWSDHKHLAQPDTAVISVVGSRHNQNLGCYPVELERGPRGFGFSLRGGKEYNMGLFILRLAEDGPAIKDGRIHVGDQIVEINGEPTQGITHTRAIELIQAGGNKVLLLLRPGTGLIPDHGDWDINNPSSSNVIYDEQSPLPPSSHFASIFEESHVPVIEESLRVQICEKAEELKDIVPEKKSTLNENQPEIKHQSLLQKNVSKRDPPSSHGHSNKKNLLKVENGVTRRGRSVSPKKPASQHSEEHLDKIPSPLKNNPKRRPRDQSLSPSKGENKSCQVSTRAGSGQDQCRKSRGRSASPKKQQKIEGSKAPSNAEAKLLEGKSRRIAGYTGSNAEQIPDGKEKSDVIRKDAKQNQLEKSRTRSPEKKIKRMVEKSLPSKMTNKTTSKEVSENEKGKKVTTGETSSSNDKIGENVQLSEKRLKQEPEEKVVSNKTEDHKGKELEAADKNKETGRFKPESSSPVKKTLITPGPWKVPSGNKVTGTIGMAEKRQ

target: GFP-IQSec1 (human) (UniProt Q6DN90); assay: affinity purification with mass spectrometry; GFP-IQSec1 expressed in HEK-293; NP-40 lysis buffer (0.1% Nonidet P-40, Tris HCl pH7.4, 150 mM NaCl); GFP-TRAP_A beads 60 min; gel bands analysed by LC-MS/MS

binding, binds:
PDLIM1 (from UniProt O00151 1-329), AP2A1 (from UniProt O95782 1-977), PTPN13 (from UniProt Q12923 1-2485), AP2B1 (from UniProt P63010 1-937), ZO-2 (from UniProt Q9UDY2 1-1190), clathrin heavy chain (CLTC) (from UniProt Q00610 1-1675), oxysterol binding protein related protein 3 (ORP3) (from UniProt Q9H4L5 1-887), PDLIM7 (from UniProt Q9NR12 1-457), SCRB1 (from UniProt Q14160 1-1655), AP2M1 (from UniProt Q96CW1 1-435)

target: GFP-IQSec1 (human) (UniProt Q6DN90); assay: as above; remark: another data set of the same source

binding, binds:
B1, B2

Results are given in words; binding and its absence hold for the method and conditions named. Binding seen in cells or lysates may run through a third protein. A yes stands for co-enrichment or nearness to the bait. Other partners may have been found.
